PubChem BioAssay AID504764 – Drosophila RNAi Screening Center – 2011

- Aim: 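Knock-downs that raise or lower a Notch target reporter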 (primary screen)
- Cells: Drosophila Kc167 cells
- Reagent: long dsRNA against Drosophila genes
- Timing: about 5 days (4 days dsRNA, then 24 h after transfection)
- Challenge: transfection of constitutively active membrane-tethered Notch lacking the extracellular domain, read 24 h later
- Measurement: 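Light from a Notch-responsive E(spl)m3 luciferase reporter under active Notch, with control-promoter and no-Notch reporter wells to normalise; raw counts from paired wells a and b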
- Direction: induced reporter light, run 1, well a and induced reporter light, run 1, well b: higher = more light from the Notch target reporter with active Notch; control promoter light, run 1, well a and control promoter light, run 1, well b: higher = more light from the viral control promoter (cell number, transfection, viability); uninduced reporter light, run 1, well a: higher = more light from the Notch target reporter without active Notch
- Active means: 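Wells with low control signal or poorly matching duplicates excluded; duplicates averaged; per source plate, z beyond ±2 for induced/control log2 ratio or beyond ±1.8 for induced/uninduced marks a hit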
- Meaning of the calls: active = modifier hit (raised or lowered Notch signal); inactive = not a hit
The deposit covers about 22,000 reagents; shown is an unselected part of those that have a named target and a result. In the full data, 403 (1.9%) got an active call. 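Unnormalised raw counts per well; ratio z-scores behind the hit calls and whether each hit raises or lowers signal are not deposited.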 Unmarked entries are inactive. Not given: the amount of reagent.

gene knocked down,DRSC id,"induced reporter light, run 1, well a","induced reporter light, run 1, well b","control promoter light, run 1, well a","control promoter light, run 1, well b","uninduced reporter light, run 1, well a"
rho-7,DRSC07304,1.15e5,1.10e5,1.13e5,1.10e5,8625
kn,DRSC05505,2.69e5,1.96e5,3.00e5,3.74e5,18255
kn,DRSC05507,2.00e5,1.75e5,3.19e5,3.13e5,19625
kn,DRSC06196,73530,82835,91160,89605,6700
kn,DRSC07637,77885,88945,1.09e5,99905,8470
CG16700,DRSC19755,1.17e5,1.11e5,1.11e5,98080,12320
Pak3,DRSC15017,1.24e5,1.29e5,1.27e5,1.47e5,13195
CG3081,DRSC18571,1.79e5,1.61e5,2.81e5,3.20e5,12900
TAF1C-like,DRSC04073,1.75e5,1.54e5,1.22e5,1.30e5,11720
CG42360,DRSC04224,1.19e5,1.18e5,1.30e5,1.31e5,9320
Hsp67Bc,DRSC11193,1.70e5,1.67e5,2.77e5,1.93e5,10855
CG2865,DRSC18527,1.58e5,2.15e5,2.28e5,1.97e5,12945
CG2865,DRSC18528,87420,86645,68300,63855,13410
tun,DRSC05592,1.37e5,2.77e5,2.92e5,2.74e5,17665
tun,DRSC07127,1.10e5,92885,1.84e5,1.99e5,9425
CG15109,DRSC06536,95435,78855,1.02e5,1.23e5,8010
ana3,DRSC06289,90775,98160,1.36e5,1.45e5,10030
Cpr64Ac,DRSC08462,1.32e5,1.57e5,1.41e5,1.96e5,9132

8 entries from above, sorted by “induced reporter light, run 1, well a”, descending:
gene knocked down,DRSC id,"induced reporter light, run 1, well a","induced reporter light, run 1, well b","control promoter light, run 1, well a","control promoter light, run 1, well b","uninduced reporter light, run 1, well a"
CG3081,DRSC18571,1.79e5,1.61e5,2.81e5,3.20e5,12900
TAF1C-like,DRSC04073,1.75e5,1.54e5,1.22e5,1.30e5,11720
Hsp67Bc,DRSC11193,1.70e5,1.67e5,2.77e5,1.93e5,10855
Pak3,DRSC15017,1.24e5,1.29e5,1.27e5,1.47e5,13195
CG42360,DRSC04224,1.19e5,1.18e5,1.30e5,1.31e5,9320
CG16700,DRSC19755,1.17e5,1.11e5,1.11e5,98080,12320
kn,DRSC07637,77885,88945,1.09e5,99905,8470
kn,DRSC06196,73530,82835,91160,89605,6700

Additional entries follow.
gene knocked down,DRSC id,"induced reporter light, run 1, well a","induced reporter light, run 1, well b","control promoter light, run 1, well a","control promoter light, run 1, well b","uninduced reporter light, run 1, well a"
krz,DRSC16979,1.24e5,1.53e5,1.89e5,2.22e5,9775
CG5676,DRSC02875,1.01e5,1.14e5,62110,82465,13680
GstT3,DRSC20541,92945,97730,1.08e5,1.15e5,9640
CG14879,DRSC15003,1.97e5,1.82e5,1.63e5,1.40e5,13735
CG13074,DRSC09957,1.46e5,1.90e5,2.49e5,2.62e5,9190
Toll-6,DRSC11304,1.41e5 (active),1.62e5,3.09e5,3.01e5,6970
foi,DRSC10719,2.16e5,2.36e5,3.10e5,2.74e5,8600
CG30289,DRSC03870,79840,60065,68795,69515,8315
CG3719,DRSC18493,1.90e5,1.78e5,2.40e5,2.99e5,13740
CG33267,DRSC09120,1.95e5,2.14e5,2.57e5,2.27e5,12232
Shc,DRSC11284,1.74e5 (active),1.37e5,89410,72005,7755
CG13926,DRSC08395,1.69e5,1.12e5,2.09e5,1.73e5,8300
CG2157,DRSC19836,1.17e5,1.37e5,3.26e5,2.05e5,9320
CG2321,DRSC15439,1.67e5,2.04e5,2.20e5,2.30e5,12115
Sytbeta,DRSC10009,1.42e5,1.68e5,1.80e5,1.55e5,10765
Sytbeta,DRSC10351,1.81e5,2.03e5,2.54e5,2.41e5,9140
Cdk5alpha,DRSC03290,1.16e5,1.47e5,66615,82110,18925
Ir21a,DRSC00528,99390,1.08e5,94725,45480,8395
Or43b,DRSC07486,2.36e5,1.80e5,2.30e5,2.19e5,16515
poe,DRSC03593,1.37e5,1.08e5,1.06e5,91225,10245
CG7335,DRSC10816,1.68e5,1.31e5,1.40e5,1.26e5,9190
atl,DRSC16089,1.46e5,1.55e5,2.51e5,2.61e5,12535
Nrx-IV,DRSC11238,1.23e5,1.09e5,88800,56790,10570
CG34107,DRSC14554,68360,66380,68655,56270,4270
CG3085,DRSC04335,1.95e5,1.98e5,1.66e5,1.73e5,15650
Sfp93F,DRSC13505,2.33e5,3.03e5,3.55e5,4.03e5,16255
CG13409,DRSC14585,1.63e5,1.48e5,1.88e5,1.47e5,11485
CG1951,DRSC15403,1.96e5,2.12e5,3.11e5,3.09e5,18705
CG6429,DRSC06986,1.58e5,1.13e5,1.28e5,1.54e5,8950
CG1074,DRSC12143,1.40e5 (active),1.03e5,64845,70965,7770
CG5704,DRSC08572,93195,92480,1.54e5,1.92e5,8955
CG13046,DRSC09927,2.02e5,2.29e5,2.50e5,2.42e5,10060
